Results: article PMC13039736
Results are given in words; binding and its absence hold for the method and conditions named. In cells and extracts the contact can be indirect. For part of these data: Binding can be weak; no strength is given. For part of these data: Tags and fused reporters may be left off the sequences shown. Each block holds one binder with its values, some of them ahead of it.

Legend:
[1] = biological target: HA-DUSP12 N-terminus truncation; assay: co-IP; in vitro binding assay: HA-tagged DUSP12 forms and FLAG-ZNF622 expressed by coupled in vitro transcription/translation, incubated together with anti-HA magnetic beads 1.5 h at 4 C, washed with LAP200 buffer (200 mM KCl, 0.05% NP-40, 0.5 mM DTT); immunoblot
[2] = biological target: HA-DUSP12 phosphatase domain + C-terminus truncation; assay: as above
[3] = biological target: HA-DUSP12 phosphatase domain truncation; assay: as above
[4] = biological target: LAP-DUSP12 N-terminus truncation; assay: co-IP; LAP-tagged induced HeLa stable cell lines (asynchronous or Taxol-arrested) lysed, incubated with S-protein Agarose 2 h at 4 C, washed with LAP100 buffer (100 mM KCl, 0.05% NP-40, 0.5 mM DTT); immunoblot for ZNF622
[5] = biological target: LAP-DUSP12 phosphatase domain + C-terminus truncation; assay: as above
[6] = biological target: LAP-DUSP12 phosphatase domain truncation; assay: as above

binding [1]: no binding
binding [2]: binds
binding [3]: no binding
B1: FLAG-ZNF622 (protein, UniProt Q969S3 1-477)
chain: MATYTCITCRVAFRDADMQRAHYKTDWHRYNLRRKVASMAPVTAEGFQERVRAQRAVAEEESKGSATYCTVCSKKFASFNAYENHLKSRRHVELEKKAVQAVNRKVEMMNEKNLEKGLGVDSVDKDAMNAAIQQAIKAQPSMSPKKAPPAPAKEARNVVAVGTGGRGTHDRDPSEKPPRLQWFEQQAKKLAKQQEEDSEEEEEDLDGDDWEDIDSDEELECEDTEAMDDVVEQDAEEEEAEEGPPLGAIPITDCLFCSHHSSSLMKNVAHMTKDHSFFIPDIEYLSDIKGLIKYLGEKVGVGKICLWCNEKGKSFYSTEAVQAHMNDKSHCKLFTDGDAALEFADFYDFRSSYPDHKEGEDPNKAEELPSEKNLEYDDETMELILPSGARVGHRSLMRYYKQRFGLSRAVAVAKNRKAVGRVLQQYRALGWTGSTGAALMRERDMQYVQRMKSKWMLKTGMKNNATKQMHFRVQVRF

binding [4]: no binding
binding [5]: binds
binding [6]: no binding
B2: zinc finger protein 622 (ZNF622), endogenous (protein, UniProt Q969S3 1-477)
chain: B1 chain
